From PMC11628678
These are yes or no findings as the source states them, for the method shown. In cells and extracts the contact can be indirect. Some binding calls cover weakened binding; strength is not graded here.

Biological target: Yes1-associated transcriptional regulator (YAP1) (human (endogenous in the human SSC line)) (UniProt P46937)
Assay: co-IP; endogenous proteins; human SSC line lysed in the binding/washing buffer of the Pierce IP/Co-IP kit; 10 ug anti-YAP1 or anti-RAD21 antibody overnight at 4 °C, protein A/G magnetic beads 2 h at room temperature; Western blot

binding: binds
B1: RAD21 (RAD21 cohesin complex component) (protein, UniProt O60216 1-631)
chain: MFYAHFVLSKRGPLAKIWLAAHWDKKLTKAHVFECNLESSVESIISPKVKMALRTSGHLLLGVVRIYHRKAKYLLADCNEAFIKIKMAFRPGVVDLPEENREAAYNAITLPEEFHDFDQPLPDLDDIDVAQQFSLNQSRVEEITMREEVGNISILQENDFGDFGMDDREIMREGSAFEDDDMLVSTTTSNLLLESEQSTSNLNEKINHLEYEDQYKDDNFGEGNDGGILDDKLISNNDGGIFDDPPALSEAGVMLPEQPAHDDMDEDDNVSMGGPDSPDSVDPVEPMPTMTDQTTLVPNEEEAFALEPIDITVKETKAKRKRKLIVDSVKELDSKTIRAQLSDYSDIVTTLDLAPPTKKLMMWKETGGVEKLFSLPAQPLWNNRLLKLFTRCLTPLVPEDLRKRRKGGEADNLDEFLKEFENPEVPREDQQQQHQQRDVIDEPIIEEPSRLQESVMEASRTNIDESAMPPPPPQGVKRKAGQIDPEPVMPPQQVEQMEIPPVELPPEEPPNICQLIPELELLPEKEKEKEKEKEDDEEEEDEDASGGDQDQEERRWNKRTQQMLHGLQRALAKTGAESISLLELCRNTNRKQAAAKFYSFLVLKKQQAIELTQEEPYSDIIATPGPRFHII
